The numbers were not newly measured in article PMC9974843 (Journal of medicinal chemistry, 2023), which cites them from elsewhere.

For this data set the following is noted: not told.

Turning to `CCCc1ccc(-c2ccc(N(C[C@@H](N)[C@@H](C)CC)C(=O)[C@@H]3C[C@H]3c3ccccn3)cc2)cc1` [Compound 2-PCCA, (1R,2R)-2-(pyridin-2-yl)-cyclopropane carboxylic acid [(2S,3S)-2-amino-3-methylpentyl]-(4′-propylbiphenyl-4-yl)amide], the brain permeability entry is reported as “poor brain permeability”.
